The data set deals with published kinase panels. The data set is described as follows: Selectivity metrics calculated from published kinome profiling data. In kind it is biochemical.
The mark [1] stands for this setting: 10 μM, 402 kinases, data of ref 31.

For the molecule `COc1ccc2c(c1)[nH]c1c(C)nccc12` [Harmine, harmine], the Gini score is reported as 0.628 (1 μM, 117 kinases, data of ref 45) and 0.843 under setting [1].

`CCN1/C(=C/C(C)=O)Sc2ccc(O)cc21` [INDY]: the Gini score (10 μM, 66 kinases, data of ref 30) is given as 0.342.

As for `O=C1NC(Nc2ccccc2)=N/C1=C\c1ccc2c(c1)OCO2` [L41], the Gini score under setting [1] was 0.673.

For the molecule `COc1ccc2c3ccnc(C(F)(F)F)c3n(CCCCN)c2c1` [LDN-211898], the Gini score (10 μM, 292 kinases, data of ref 38) was 0.652.

In the case of `CN1C(=O)/C(=C/c2ccc3c(c2)OCO3)N=C1N` [Leucett-amine B, Leucettamine B], under setting [1], the Gini score is 0.862.

As to `c1ccc(-c2cc(-c3cncs3)cs2)cc1` [Thiophene 29], for the setting “5 μM, 102 kinases, data of ref 57”, the Gini score is given as 0.741.

The values are drawn from publication PMC4508061, “Selectivity Profiling and Biological Activity of Novel β-Carbolines as Potent and Selective DYRK1 Kinase Inhibitors” (PLoS ONE, 2015).
